As a reminder, the AC50 is the midpoint of the concentration-response curve, whichever way the signal moves. Read a low AC50 as greater potency.

Data on 41 compounds can be found in PubChem BioAssay AID2685 (National Center for Advancing Translational Sciences (NCATS), 2010).

A short description of this test: qHTS Assay for Lipid Storage Modulators in Drosophila S3 Cells.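 As to cell number change: cells counted by Cell Tracker Red CMTPX staining in the red channel.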 Conditions: BODIPY lipid droplet fluorescence, 18-24 h; for cell number change: measured here: cell count max response, cells fed with added oleic acid. Summed up: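 Drosophila S3 cells got compounds at several concentrations plus oleic acid (400 uM solution). Laser-scanning cytometry with 488 nm excitation read lipid droplets at 500-530 nm and cells at 575-640 nm. Percent activity was relative to 20 uM Triacsin C.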
Background: In qHTS, concentration-response curves come from the screen itself.

The mark [1] stands for this setting: measured here: lipid fluorescence (Fed channel) AC50, cells fed with added oleic acid.
[2] abbreviates: measured here: cell number channel AC50, cells fed with added oleic acid.

This is one part of the list. Further columns of the screen follow, without active or inactive calls. Compounds called inactive in the main read-out are mostly missing here. Words in brackets tell the shape of the fitted curve; partial curves, single points and poor fits give uncertain potencies.

Regarding `CC(C)Oc1cccc(C(=O)NC(=S)Nc2ccc(N3CCN(C)CC3)cc2)c1`, the cell number change is -16.9%. In addition, under setting [1], the concentration at half-maximal activity (AC50) is 2.06 µM [rising, partial curve, poor fit].
`CCCc1cc(=O)oc2c(C)c3occ(C)c3cc12`: the cell number change was found to be 14%. Further, the half-maximal activity concentration (AC50) under setting [1] is 0.731 µM [rising, full curve].
For the compound `N#Cc1ccccc1S(=O)(=O)N1CCN(C(=O)[C@@H]2CCCN2C(=O)c2cccs2)CC1`, the cell number change was -7.64%.
In the case of `Cc1cccc(-c2cc3nc4c(c(NCc5ccco5)n3n2)CCCC4)c1`, the cell number change is -18.4%. Also, the AC50 under setting [1] was 2.06 µM [falling, full curve, poor fit].
As for `CCCc1cc(=O)n2[nH]c(NC(=O)c3ccco3)nc2n1`, the cell number change is 19.2%.
The same measure, in the same setting: in the case of `O=C(N/N=C/c1ccccn1)c1ccncc1` it was -9.01%.
`CCNc1nc(NCC)nc(N(n2cnnc2)S(=O)(=O)c2ccc(C)cc2)n1`: the cell number change was -4.84%. Besides, the AC50 under setting [2] was 0.82 µM [falling, full curve, poor fit].
For the compound `N#Cc1nc(-c2cccc3ccccc23)oc1NCC#CCOC(=O)c1cccs1`, under setting [1], the concentration at half-maximal activity (AC50) was 16.4 µM [falling, partial curve].
In the case of `O=C(O)C1CCCCC1C(=O)NCc1ccccc1` (configuration not stated), the cell number change was 7.85%. Further, the AC50 under setting [1] is 0.731 µM [falling, full curve].
`COc1ccc(CN2c3cc(S(=O)(=O)N4CCOCC4)ccc3N3CCCC32)cc1` (configuration not stated): under setting [1], the AC50 was 18.4 µM [falling, partial curve].
As to `O=C(Nc1ccc(Cl)cc1)C1C2C=CC3(O2)C1C(=O)N(CCCN1CCCCC1)C3C(=O)NC1CCCCC1` (configuration not stated), the cell number change stood at 24.6%. Moreover, the AC50 under setting [1] is 1.16 µM [falling, single point].
Regarding `Cc1c(C(=O)N2CCCCC2)c(S(=O)(=O)N2CCN(c3ccccc3F)CC2)c(C)n1C`, the cell number change is -2.64%.
In the case of `O=C1CC(c2ccccc2)CC(O)=C1C=NCCN1CCN(C(=S)Nc2cccc(Cl)c2)CC1` (configuration not stated), the cell number change was found to be 6.2%. In addition, the AC50 under setting [1] was 0.146 µM [falling, partial curve, poor fit].
As for `Cc1ccc(Cl)cc1N1CCN(C(=O)CN(C2CCCCC2)S(C)(=O)=O)CC1`, the cell number change was -29.2%. Further, the half-maximal activity concentration (AC50) under setting [1] is 20.6 µM [falling, partial curve].
`CC1SCC(=O)N(CC(=O)NC2CCCCC2)C1=O` (configuration not stated): the cell number change worked out at 16.7%. Under setting [2], the AC50 is 0.58 µM [rising, full curve, poor fit].
For `Cc1ccc(N(CC(=O)NCCc2ccccc2)C(=O)CCC(=O)Nc2cc(C)ccn2)cc1`, the cell number change is 8.33%.
Consider `COc1ccc(-n2cc(-c3ccc(OC(F)F)cc3)[n+]3c2CCCCC3)cc1`, for which the cell number change is -55.3%. In addition, the AC50 under setting [2] is 1.46 µM [rising, single point]. Further, under setting [1], the half-maximal activity concentration (AC50) was 6.51 µM [rising, single point].
Consider `O=C(COC(=O)Cc1c[nH]c2ccccc12)Nc1c(Cl)cccc1C(F)(F)F`, for which the cell number change is -31.5%. In addition, the AC50 under setting [2] is 29.1 µM [falling, single point]. Moreover, the half-maximal activity concentration (AC50) under setting [1] is 13 µM [falling, partial curve].
In the case of `CCOc1cccc(/C=N/NC(=O)c2cccnc2)c1O`, the cell number change was -5.51%. The AC50 under setting [1] was 0.82 µM [rising, full curve, poor fit].
In the case of `O=C(OCCOc1ccc(Br)cc1)c1ccc(Cl)c(S(=O)(=O)N2CCOCC2)c1`, the cell number change was -2.81%.
On to `O=C(/C=C/c1cccc(F)c1)NC1CCN(Cc2ccccc2)CC1`, for which the cell number change worked out at 4.76%.
Regarding `COc1cc(CCC(=O)OCC(=O)Nc2ccccc2OC(F)F)cc(OC)c1OC`, the cell number change came out at 24.3%.
Turning to `O=c1c2ccccc2nc2n1-c1ccccc1CCC2`, the cell number change stood at 0.414%. The AC50 under setting [1] is 0.184 µM [rising, full curve, poor fit].
As to `O=C(NCc1cccc(C(F)(F)F)c1)c1ccc(=O)[nH]c1`, the cell number change worked out at 6.58%.
Consider `O=C(CCCC(=O)Nc1cccc(Br)c1)N/N=C/c1cc([N+](=O)[O-])ccc1O`, for which the cell number change came to 16.6%. Moreover, the AC50 under setting [2] is 0.731 µM [rising, full curve, poor fit]. The AC50 under setting [1] is 1.64 µM [rising, partial curve].
Regarding `CCOC(=O)c1ccc(N2C(=O)c3n[nH]c(C)c3C2c2ccc(OC)c(OC)c2)cc1` (configuration not stated), the cell number change was -4.65%. Besides, under setting [1], the AC50 is 0.58 µM [rising, single point].
`COc1ccc([N+](=O)[O-])cc1Nc1c2ccccc2nc2ccccc12`: the cell number change was -81.4%. The AC50 under setting [2] is 11.6 µM [falling, partial curve].
As for `Cc1cc(C)c2c(c1)[C@@H]1C=CC[C@@H]1[C@H](c1ccc(S(=O)(=O)N3CCOCC3)cc1)N2`, the cell number change worked out at 2.97%. The AC50 under setting [1] was 6.51 µM [falling, single point].
In the case of `O=C1CCC(=O)N1CCCCCc1nc(-c2ccccc2)no1`, the cell number change is 33.6%. The AC50 under setting [2] is 25.9 µM [rising, single point]. For the same compound, under setting [1], the concentration at half-maximal activity (AC50) was 18.4 µM [rising, partial curve].
As for `CCN(CC)C(=O)COc1ccc(/C=C(\C#N)S(=O)(=O)c2ccccc2)cc1OC`, the cell number change came out at 7.5%.
Same read-out and setting: in the case of `O=c1[nH]c(C2CCN(S(=O)(=O)c3ccccc3F)CC2)nc2c1nnn2Cc1ccc(OC(F)(F)F)cc1` it was 5.37%.
Take `CCOC(=O)c1[nH]c(C)c(C(=O)Nc2ccccc2C)c1C`: the AC50 under setting [1] is 0.411 µM [rising, full curve].
As for `CC(=O)N[C@H]1C[C@@H]1c1ccccc1`, the cell number change worked out at 6.07%. For the same compound, the AC50 under setting [1] was 4.11 µM [falling, full curve].
Consider `COc1ccc(C(=O)Nc2cccc(/C(C)=N/NC(=O)c3ccc([N+](=O)[O-])cc3)c2)cc1OC`, for which the cell number change amounted to 17.2%. Besides, the AC50 under setting [1] was 29.1 µM [rising, single point].
Take `Cc1c(NC(=O)CSc2ncccn2)c(=O)n(-c2ccccc2)n1C`: the cell number change is -11.1%.
As to `NC(=O)C1CCCN(C(=O)c2ccc(NC(=O)c3cccs3)cc2)C1` (configuration not stated), the cell number change is -0.775%. Under setting [1], the half-maximal activity concentration (AC50) is 3.66 µM [falling, partial curve].
As for `COc1ccc(Cl)cc1NC(=O)CN1CCc2ccccc2C1`, the cell number change is -35.9%. Moreover, under setting [2], the AC50 is 29.1 µM [falling, single point]. In addition, the AC50 under setting [1] is 6.51 µM [falling, single point].
For the compound `Cc1cc(C)n(-c2nc(SCC(=O)NCC3CCCO3)c3c4c(sc3n2)CCCC4)n1` (configuration not stated), the cell number change was -14.1%. Also, the concentration at half-maximal activity (AC50) under setting [1] was 29.1 µM [falling, single point].
As for `COc1cc(C(=O)NCc2cccc(Cl)c2)ccc1OCC(=O)N1CCOCC1`, the cell number change came to 27.1%. The AC50 under setting [1] was 18.4 µM [rising, single point].
With `Cc1ccccc1Oc1ccc(NC(=O)C2CC=CCC2C(=O)O)cc1` (configuration not stated), the cell number change is 5.31%. Besides, the AC50 under setting [1] is 3.26 µM [rising, single point].
Consider `Cn1nnc2cc(NC(=O)NCc3ccc4c(c3)OCO4)ccc21`, for which the cell number change is 6.12%. The AC50 under setting [1] is 3.66 µM [rising, single point].
